Measurements: publication PMC7819943, “Rice protein-binding microarrays: a tool to detect cis-acting elements near promoter regions in rice”
The other results are listed elsewhere or left out.

Biological target: T1, OsSMF1 (Oryza sativa, UniProt Q6ZLB0 1-436)
T1 sequence: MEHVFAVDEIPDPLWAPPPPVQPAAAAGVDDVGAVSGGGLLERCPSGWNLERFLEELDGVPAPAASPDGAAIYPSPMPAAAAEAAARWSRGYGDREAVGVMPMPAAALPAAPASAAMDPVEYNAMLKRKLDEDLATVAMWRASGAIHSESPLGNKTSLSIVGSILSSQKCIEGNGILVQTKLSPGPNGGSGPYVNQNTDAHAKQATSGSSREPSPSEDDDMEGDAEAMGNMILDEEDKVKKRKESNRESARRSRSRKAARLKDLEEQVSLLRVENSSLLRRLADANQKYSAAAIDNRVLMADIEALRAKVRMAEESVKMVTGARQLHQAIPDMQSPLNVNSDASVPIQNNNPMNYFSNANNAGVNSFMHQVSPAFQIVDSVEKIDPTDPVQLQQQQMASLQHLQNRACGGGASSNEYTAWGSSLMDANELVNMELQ
Assay: protein-binding microarray (RPBM); PBS, 2% BSA, 51.3 ng/ul salmon testes DNA, 50 uM zinc acetate, 200 nM TF, 25 C, 1 h; high values mean tight binding
Conditions: protein: recombinant; tags: N-terminal polyhistidine and DsRed monomer fusion (pET32a); chain copies: 2; label: CyDye5-dUTP incorporated in the synthesized complementary strand; 3' TTTTT single-stranded linker to array surface; dsDNA, one strand shown
Method in brief: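 Using Ni–NTA, transcription factors fused N-terminally to polyhistidine and DsRed were purified after expression in E. coli BL21-CodonPlus. These were incubated at 200 nM with a blocked, double-stranded custom Agilent array for 1 h at 25 °C in a buffer containing 50 µM zinc acetate, and the array was washed. The binding signal is per-feature fluorescence intensity (arbitrary units) on an Axon 4000B scanner.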

**Q.** With “CCTGGGGATGCAGATACACGACAACAACTGAAGCTTGTTGCGGAGTCACCTAGTGCAG” as the sequence, how does the binding signal read?
**A.** 3240 fluorescence intensity (a.u.)

**Q.** Which binding signal does the source give for “TCATCCTCCGCCTCGAGCATTCCCTCTCATCCTCCCGCCCCGGAGTCACCTAGTGCAG” here?
**A.** 31400 fluorescence intensity (a.u.)

**Q.** “GATCCAATACGAGACCGACACGTCGTCAGCGACCAAGTAACGGAGTCACCTAGTGCAG” was tested. Which binding signal did it give?
**A.** 4420 fluorescence intensity (a.u.)

**Q.** “CGTAACGCGATCGAGAACCGACTCAGCCGAGACTCATCGTCGGAGTCACCTAGTGCAG” was tested. Which binding signal did it give?
**A.** 3710 fluorescence intensity (a.u.)

**Q.** With “AGCGTGCATCATGGATGATAATGCGGTGGCATGAGACCTGCGGAGTCACCTAGTGCAG” as the sequence, how does the binding signal read?
**A.** 18300 fluorescence intensity (a.u.)

**Q.** How did the binding signal turn out when “AAAATACCCTAACCTAACAAGGGCGATATGCAGCTGACATCGGAGTCACCTAGTGCAG” was run?
**A.** 38600 fluorescence intensity (a.u.)

**Q.** For “TCATGATGGTTTTGAAATTATTCTGACACGAAAGTTTGTGCGGAGTCACCTAGTGCAG”, which binding signal is on record?
**A.** 3760 fluorescence intensity (a.u.)

**Q.** Which binding signal does the source give for “CGCGCTCGCCCTCCGTTGCGCCACCCGCATCCTGGCTCGCCGGAGTCACCTAGTGCAG” here?
**A.** 3510 fluorescence intensity (a.u.)

**Q.** Which binding signal does the source give for “CTAAGCATGATGCTGCTATCCATCTCCCGTTGAAGGTGAGCGGAGTCACCTAGTGCAG” here?
**A.** 3300 fluorescence intensity (a.u.)

**Q.** Which binding signal does the source give for “GCGGCGGCGGATGGACGGGGACTGATGCAGCTGTCGTCAGCGGAGTCACCTAGTGCAG” here?
**A.** 3160 fluorescence intensity (a.u.)

**Q.** How did the binding signal turn out when “CTATGCCACTGACGTCACCTTTTCTATCCATCCTCTCCATCGGAGTCACCTAGTGCAG” was run?
**A.** 19000 fluorescence intensity (a.u.)

**Q.** How did the binding signal turn out when “ATCATATATATTCAGTTATCATCTAAATGACATTTGGGACCGGAGTCACCTAGTGCAG” was run?
**A.** 3500 fluorescence intensity (a.u.)

**Q.** With “GTGTTAGAAACATCGTTCATATCATACACGTACACGTGGACGGAGTCACCTAGTGCAG” as the sequence, how does the binding signal read?
**A.** 6780 fluorescence intensity (a.u.)

**Q.** For “TCCTCGCGATGGCGGCTCGAGCCACGCACCGTGACACGCGCGGAGTCACCTAGTGCAG”, which binding signal is on record?
**A.** 3410 fluorescence intensity (a.u.)

**Q.** With “CTGGCATCTTGGACGTGGGCACGTGCACGTAGGACCAGAACGGAGTCACCTAGTGCAG” as the sequence, how does the binding signal read?
**A.** 4350 fluorescence intensity (a.u.)

**Q.** How did the binding signal turn out when “GCAAATTCATGTCATCTTCGATGAAACGCCAACGTCAAAGCGGAGTCACCTAGTGCAG” was run?
**A.** 3360 fluorescence intensity (a.u.)

**Q.** How did the binding signal turn out when “CCGGCCCACCAAACGTAGGCCACCTATATCACATTGGACCCGGAGTCACCTAGTGCAG” was run?
**A.** 3580 fluorescence intensity (a.u.)

**Q.** With “TCCCCTCGCATCCATAAAAGCAGCCCCGAGCCGCGCGTGGCGGAGTCACCTAGTGCAG” as the sequence, how does the binding signal read?
**A.** 3230 fluorescence intensity (a.u.)

**Q.** For “GTCACTGAGATAGGTGTGGCAAATAGTTAATTGATAAATCCGGAGTCACCTAGTGCAG”, which binding signal is on record?
**A.** 28400 fluorescence intensity (a.u.)

**Q.** With “TGACCAATCGTACGTGGGCCGATATACCCATGGACCATGGCGGAGTCACCTAGTGCAG” as the sequence, how does the binding signal read?
**A.** 3240 fluorescence intensity (a.u.)

**Q.** “CGCGACTACGACAGCCGCACGCCGCTCCACGTCGCTGCGCCGGAGTCACCTAGTGCAG” was tested. Which binding signal did it give?
**A.** 4400 fluorescence intensity (a.u.)

**Q.** Which binding signal does the source give for “ATTTCTGACACGGACCAGCTATTGACCTACCTCACTGACACGGAGTCACCTAGTGCAG” here?
**A.** 4050 fluorescence intensity (a.u.)

**Q.** How did the binding signal turn out when “CCCCGTGGTCCTGCTGCCTGCCACGTCGCCGCCGAACAAGCGGAGTCACCTAGTGCAG” was run?
**A.** 8270 fluorescence intensity (a.u.)

**Q.** For “ATGGCCTCCGTCAGAGCACTGATGTGTTACGTCGTATGCTCGGAGTCACCTAGTGCAG”, which binding signal is on record?
**A.** 3680 fluorescence intensity (a.u.)

**Q.** How did the binding signal turn out when “TCGCCATTAATTACTATTGCGATCTTGAGCCTGCGTGGCACGGAGTCACCTAGTGCAG” was run?
**A.** 6040 fluorescence intensity (a.u.)

**Q.** With “GCAGCTGAAGTGGACCTGTCAGCAAGTAAAGCCAAGAGGCCGGAGTCACCTAGTGCAG” as the sequence, how does the binding signal read?
**A.** 3470 fluorescence intensity (a.u.)

**Q.** For “AAAATGGCGCGTGCCACGGCTCTCTCTCTCTCTCTCTCTCCGGAGTCACCTAGTGCAG”, which binding signal is on record?
**A.** 3490 fluorescence intensity (a.u.)

**Q.** For “TGTGCTGCTAATTAATTGCGTACACGCATGCATACACACACGGAGTCACCTAGTGCAG”, which binding signal is on record?
**A.** 4860 fluorescence intensity (a.u.)

**Q.** How did the binding signal turn out when “GTGTGTGCACACACGCCAGCAGCTCTGACCAGCTCGAGCTCGGAGTCACCTAGTGCAG” was run?
**A.** 5560 fluorescence intensity (a.u.)

**Q.** For “CCCTCGTCCATCGCGTGCCACGTGGCGTGGAAGGCCGGAACGGAGTCACCTAGTGCAG”, which binding signal is on record?
**A.** 18000 fluorescence intensity (a.u.)

**Q.** For “TATAAACCAAAGAGTCATACTTTATTAGCCTATGAACCACCGGAGTCACCTAGTGCAG”, which binding signal is on record?
**A.** 3530 fluorescence intensity (a.u.)

**Q.** How did the binding signal turn out when “ATCAAGACCAGGCACGCCAACAAGGATGTAGTTGGGTATGCGGAGTCACCTAGTGCAG” was run?
**A.** 3150 fluorescence intensity (a.u.)

**Q.** With “ATCTACCAACCAAGTATATATCATGTCATCACAACACGGTCGGAGTCACCTAGTGCAG” as the sequence, how does the binding signal read?
**A.** 3160 fluorescence intensity (a.u.)

**Q.** Which binding signal does the source give for “TACTTATAATTAGTGTTAAACATCCGATGTGACGGGTACTCGGAGTCACCTAGTGCAG” here?
**A.** 7570 fluorescence intensity (a.u.)

**Q.** For “GTACGAACCGAGTGTGAGAGGGAGCACACGTCATCGCCGCCGGAGTCACCTAGTGCAG”, which binding signal is on record?
**A.** 22600 fluorescence intensity (a.u.)

**Q.** For “GCGTGCATGGATGGAGCGATGTCGCTGACGCCCGCTCGGCCGGAGTCACCTAGTGCAG”, which binding signal is on record?
**A.** 4390 fluorescence intensity (a.u.)

**Q.** For “TGGATCTATTGTATAGGTCAATAGGTGGCATCCACGTGTACGGAGTCACCTAGTGCAG”, which binding signal is on record?
**A.** 13100 fluorescence intensity (a.u.)

**Q.** Which binding signal does the source give for “TTCCAACACTAGGATGGTATATGAACCACCAGGATACAAACGGAGTCACCTAGTGCAG” here?
**A.** 41800 fluorescence intensity (a.u.)

**Q.** Which binding signal does the source give for “TCGATCAGTGGAAGGATATGAGTCATACCGCAAACAAAATCGGAGTCACCTAGTGCAG” here?
**A.** 7490 fluorescence intensity (a.u.)

**Q.** How did the binding signal turn out when “ATGCAGGCCACCTCACGCCACACGCTGTATCGCGCCCATACGGAGTCACCTAGTGCAG” was run?
**A.** 5790 fluorescence intensity (a.u.)

**Q.** With “GTTTCTATCCCATCGAATGTTTGGACACTAATTATAAATACGGAGTCACCTAGTGCAG” as the sequence, how does the binding signal read?
**A.** 25600 fluorescence intensity (a.u.)

**Q.** “CACGAGACAAAACACAAAGCAGGACACAGTCACACAGGCTCGGAGTCACCTAGTGCAG” was tested. Which binding signal did it give?
**A.** 3940 fluorescence intensity (a.u.)
